For one substance, binding results are on record in PMC10177872.

Sequences of proteins named here, by UniProt entry; tags and fusion partners are left off. A change or cut given only in a name is not applied to a line headed by its entry.
UniProt Q60710: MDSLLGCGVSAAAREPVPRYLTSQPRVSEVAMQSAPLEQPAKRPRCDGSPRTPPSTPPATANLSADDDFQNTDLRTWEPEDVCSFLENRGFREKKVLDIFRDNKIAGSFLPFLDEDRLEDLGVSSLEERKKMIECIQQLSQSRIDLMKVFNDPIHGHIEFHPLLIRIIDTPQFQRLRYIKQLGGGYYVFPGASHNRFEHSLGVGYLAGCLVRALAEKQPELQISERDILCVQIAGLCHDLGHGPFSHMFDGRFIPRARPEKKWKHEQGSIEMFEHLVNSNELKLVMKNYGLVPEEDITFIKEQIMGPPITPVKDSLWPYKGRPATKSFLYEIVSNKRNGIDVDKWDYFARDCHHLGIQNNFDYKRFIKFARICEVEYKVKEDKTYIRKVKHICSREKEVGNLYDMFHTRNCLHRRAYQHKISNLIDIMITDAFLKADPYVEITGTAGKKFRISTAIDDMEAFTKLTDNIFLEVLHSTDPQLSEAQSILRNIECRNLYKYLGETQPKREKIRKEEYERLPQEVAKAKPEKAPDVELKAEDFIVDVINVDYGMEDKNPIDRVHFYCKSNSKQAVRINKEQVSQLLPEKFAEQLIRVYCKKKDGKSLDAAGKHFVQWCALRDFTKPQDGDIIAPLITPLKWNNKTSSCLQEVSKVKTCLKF
UniProt Q60932: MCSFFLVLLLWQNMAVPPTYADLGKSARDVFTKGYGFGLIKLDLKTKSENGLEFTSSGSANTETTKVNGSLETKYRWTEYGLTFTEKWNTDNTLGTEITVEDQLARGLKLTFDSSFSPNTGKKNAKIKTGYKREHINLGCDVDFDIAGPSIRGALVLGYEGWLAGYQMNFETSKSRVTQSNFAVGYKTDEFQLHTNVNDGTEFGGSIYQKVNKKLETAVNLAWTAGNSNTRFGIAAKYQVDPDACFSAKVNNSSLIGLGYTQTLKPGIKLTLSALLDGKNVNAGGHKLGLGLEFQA

These are yes or no findings as the source states them, for the method shown. Binding seen in cells or lysates may run through a third protein. Here binding means that the protein was enriched with, or labelled near, the bait; the list need not be complete.

This test concerns the target SAM and HD domain-containing deoxynucleoside triphosphate triphosphohydrolase 1 (SAMHD1) (mouse (endogenous in RAW264.7)) (UniProt Q60710). The experiment in a line: affinity purification with mass spectrometry; IP with SAMHD1 antibodies and protein A/G agarose beads from non-denatured lysates of RAW264.7 cells; lanes cut from Bis-Tris gels for mass spectrometry.

Turning to “voltage-dependent anion channel-1 (VDAC1) (from UniProt Q60932)”, the binding result is “binds”.
